Experimental data reported in publication PMC12499416, “ATF3 Deficiency Exacerbates Ageing‐Induced Atherosclerosis and Clinical Intervention Strategy” (Advanced Science, 2025).

Assays:
[1] = biological target: activating transcription factor 3 (ATF3), endogenous in VSMCs (mouse (endogenous in VSMCs)); assay: co-IP; endogenous proteins from VSMC lysates; ATF3 antibody or ATG7 antibody, IgG as control; Western blot
[2] = biological target: GST-ATF3 fusion protein; assay: pull-down; GST-ATF3 fusion protein as bait, His-ATG7 from HEK-293T cells; only the target purified

B1: autophagy-related 7 (ATG7), endogenous in VSMCs (protein, UniProt Q9D906 1-698)
chain: MGDPGLAKLQFAPFNSALDVGFWHELTQKKLNEYRLDEAPKDIKGYYYNGDSAGLPTRLTLEFSAFDMSASTPAHCCPAMGTLHNTNTLEAFKTADKKLLLEQSANEIWEAIKSGAALENPMLLNKFLLLTFADLKKYHFYYWFCCPALCLPESIPLIRGPVSLDQRLSPKQIQALEHAYDDLCRAEGVTALPYFLFKYDDDTVLVSLLKHYSDFFQGQRTKITVGVYDPCNLAQYPGWPLRNFLVLAAHRWSGSFQSVEVLCFRDRTMQGARDVTHSIIFEVKLPEMAFSPDCPKAVGWEKNQKGGMGPRMVNLSGCMDPKRLAESSVDLNLKLMCWRLVPTLDLDKVVSVKCLLLGAGTLGCNVARTLMGWGVRHVTFVDNAKISYSNPVRQPLYEFEDCLGGGKPKALAAAERLQKIFPGVNARGFNMSIPMPGHPVNFSDVTMEQARRDVEQLEQLIDNHDVIFLLMDTRESRWLPTVIAASKRKLVINAALGFDTFVVMRHGLKKPKQQGAGDLCPSHLVAPADLGSSLFANIPGYKLGCYFCNDVVAPGDSTRDRTLDQQCTVSRPGLAVIAGALAVELMVSVLQHPEGGYAIASSSDDRMNEPPTSLGLVPHQIRGFLSRFDNVLPVSLAFDKCTACSPKVLDQYEREGFTFLAKVFNSSHSFLEDLTGLTLLHQETQAAEIWDMSDEETV
[1]
  binding: binds

B2: His-ATG7 from HEK-293T cells (protein, UniProt Q9D906 1-698)
chain: MGDPGLAKLQFAPFNSALDVGFWHELTQKKLNEYRLDEAPKDIKGYYYNGDSAGLPTRLTLEFSAFDMSASTPAHCCPAMGTLHNTNTLEAFKTADKKLLLEQSANEIWEAIKSGAALENPMLLNKFLLLTFADLKKYHFYYWFCCPALCLPESIPLIRGPVSLDQRLSPKQIQALEHAYDDLCRAEGVTALPYFLFKYDDDTVLVSLLKHYSDFFQGQRTKITVGVYDPCNLAQYPGWPLRNFLVLAAHRWSGSFQSVEVLCFRDRTMQGARDVTHSIIFEVKLPEMAFSPDCPKAVGWEKNQKGGMGPRMVNLSGCMDPKRLAESSVDLNLKLMCWRLVPTLDLDKVVSVKCLLLGAGTLGCNVARTLMGWGVRHVTFVDNAKISYSNPVRQPLYEFEDCLGGGKPKALAAAERLQKIFPGVNARGFNMSIPMPGHPVNFSDVTMEQARRDVEQLEQLIDNHDVIFLLMDTRESRWLPTVIAASKRKLVINAALGFDTFVVMRHGLKKPKQQGAGDLCPSHLVAPADLGSSLFANIPGYKLGCYFCNDVVAPGDSTRDRTLDQQCTVSRPGLAVIAGALAVELMVSVLQHPEGGYAIASSSDDRMNEPPTSLGLVPHQIRGFLSRFDNVLPVSLAFDKCTACSPKVLDQYEREGFTFLAKVFNSSHSFLEDLTGLTLLHQETQAAEIWDMSDEETV
[2]
  binding: binds

Results are given in words; binding and its absence hold for the method and conditions named. Binding seen in cells or lysates may run through a third protein. Binding calls can cover weak binding; strength is not graded here. For some assays here: Sequences can lack the tags named with a protein.
